Data reported in US8080235B2, “Protein kinase A reporters useful in high throughput assays” (The Johns Hopkins University, priority 2005, dated 2011).
For at least one compound, name, drawing or mass did not settle the structure.

What was measured:
[1] = target: PKA (Homo sapiens, UniProt P17612); conditions: cited from earlier work
[2] = system: cAMP; assay: ICUE high-throughput screening of Johns Hopkins Clinical Compound Library (stable cells); assay type: cell-based; conditions: 10 μM compound, then 0.25 μM Iso plus 100 μM IBMX
Method: Live Cell High-Throughput Screening. HEK-293 cells transiently expressing AKAR or stably expressing ICUE were trypsinized and plated in a Costar 3606 96-well plate (Corning) at a density of 150,000 cells per well. After incubation for 24 hours, cells were washed once with HBSS and left in 190 μl of HBSS at 20-25° C. Fluorescence readings were taken as described above, with each cycle lasting 90 seconds. Following baseline acquisition, cells in each experimental well were treated with a compound from the Johns Hopkins Clinical Compound Library to a final concentration of 10 μM. Control cells were treated with 10 μL of 10% fetal bovine serum (FBS) in a solution of phosphate buffered saline (PBS) at pH 7.4, which is the solution used to dissolve library compounds.
Readings were taken for 10 cycles spanning a time of approximately 15 minutes, after which cells in experimental wells and positive controls were treated with 0.25 μM ISO (AKAR) or 0.25 μM Iso plus 100 μM IBMX (ICUE), while negative controls received 0.5% DMSO in HBSS. Ten final cycles were then performed.
FRET responses were calculated as described above. Negative control (10% FBS, 0.5% DMSO) and positive control (10% FBS, 0.25 μM ISO) curves were generated. Agonist hits were defined as compounds eliciting responses larger than six times the standard deviation above the baseline. […]

## C=CC1=C(C)/C(=C/c2[nH]c(Cc3[nH]c(/C=C4\NC(=O)C(C)=C4C=C)c(C)c3CCC(=O)O)c(CCC(=O)O)c2C)NC1=O [bilirubin]
[1]
  concentration at which PKA is inhibited in vitro: tens
[2]
  antagonist screen: effect on ISO-stimulated ICUE response: potential antagonist
